Results on 23 compounds are retold here after PubChem BioAssay AID248 (DTP/NCI, 2004).

The list is a part of this screen's results and no random one: it gathers tests that were run many times, whatever their T/C, doses with no T/C, and many T/C values between a quarter and a half above the control. Other doses and runs of a compound stand elsewhere. T/C gives the treated animals as a percentage of the vehicle group. Some doses have a count of surviving animals in place of a T/C: the source holds a T/C of zero for them, seemingly a mark for toxic or unscored doses. Some survivor counts are full or nearly so, which does not show that the dose was tolerated: the source hardly ever lists a survival T/C far under the control, and the zero likely stands for such cases as well. Survivors were counted at the toxicity check, usually on the fifth day, unless a day is given; later deaths do not show. Schedule codes are those of the source, taken here to give the interval after Q, in days (D) or hours (H), and the number of doses after X. Some schedules carry Z or #; the key to these is not given. Where survival is the endpoint, the PubChem record calls one and a half times the control and up active, and a quarter to a half above the control has no call in these data; cut-offs in other NCI protocols can differ. Some T/C values are followed by the survivors on the day toxicity was checked, most often the fifth; where none is given, no animal had died by that day.

In this test the test system is L1210 leukemia ip in BDF1 mice, survival T/C. The test is described as follows: NCI In Vivo Anticancer Drug Screen. Data for tumor model L1210 Leukemia (intraperitoneal) in B6D2F1 (BDF1) mice. The following applies: T/C endpoint: mean survival time, higher T/C = longer survival.
[1] abbreviates: dose: 100.0 mg/kg/injection, schedule: Q01DX009 (ip), vehicle: saline.
Where [2] appears, read: dose: 200.0 mg/kg/injection, schedule: Q01DX009 (ip), vehicle: saline.
[3] abbreviates: dose: 100.0 mg/kg/injection, schedule: Q01DX009 (ip), vehicle: Klucel (hydroxypropylcellulose) (HPC).
Where [4] appears, read: dose: 200.0 mg/kg/injection, schedule: Q04DX003 (ip), vehicle: Klucel (hydroxypropylcellulose) (HPC).
The mark [5] stands for this setting: dose: 400.0 mg/kg/injection, schedule: Q04DX002 (ip), vehicle: Klucel (hydroxypropylcellulose) (HPC).
The mark [6] stands for this setting: dose: 400.0 mg/kg/injection, schedule: Q04DX003 (ip), vehicle: saline.
Where [7] appears, read: dose: 200.0 mg/kg/injection, schedule: Q01DX001 (ip), vehicle: Klucel (hydroxypropylcellulose) (HPC).
Where [8] appears, read: dose: 400.0 mg/kg/injection, schedule: Q01DX001 (ip), vehicle: Klucel (hydroxypropylcellulose) (HPC).
Where [9] appears, read: dose: 200.0 mg/kg/injection, schedule: Q01DX009 (ip), vehicle: Klucel (hydroxypropylcellulose) (HPC).

With `[CH3][Sn]([CH3])([CH3])[CH2]CCBr`, the survivor count reads like this: (dose: 6.25 mg/kg/injection, schedule: Q01DX009 (ip), vehicle: saline) 1 of 3; (dose: 12.5 mg/kg/injection, schedule: Q01DX009 (ip), vehicle: saline) 0 of 3; (dose: 25.0 mg/kg/injection, schedule: Q01DX009 (ip), vehicle: saline) 0 of 3; under setting [1], 3 of 3; under setting [2], 2 of 3; (dose: 400.0 mg/kg/injection, schedule: Q01DX009 (ip), vehicle: saline) 0 of 3.

For the compound `O=Ic1ccccc1`, the survivor count under setting [3] is recorded as 0 of 6 and the survivor count under setting [4] was 0 of 6.

Take `CCCCCCCCN=[N+](C)[O-]`: the survivor count under setting [5] is listed as 1 of 3.

With `O=C1N(C[P+](c2ccccc2)(c2ccccc2)c2ccccc2)CCCN1C[P+](c1ccccc1)(c1ccccc1)c1ccccc1`, the survivor count (dose: 12.5 mg/kg/injection, schedule: Q01DX005 (ip), vehicle: saline) is reported as 0 of 3; the survivor count (dose: 100.0 mg/kg/injection, schedule: Q04DX002 (ip), vehicle: saline) is on record as 3 of 3; the survivor count (dose: 200.0 mg/kg/injection, schedule: Q04DX002 (ip), vehicle: saline) is listed as 0 of 3; the survivor count (dose: 400.0 mg/kg/injection, schedule: Q04DX002 (ip), vehicle: saline) is listed as 0 of 3.

On to `CCSC(C(O)C(O)C(O)C(O)CO)n1ccc(=O)[nH]c1=O` (stereo unspecified), for which the survivor count under setting [1] is recorded as 6 of 6.

For `CC(C)(C)CN`, the survivor count runs as follows: under setting [2], 6 of 6; under setting [6], 0 of 6.

As to `O=C1c2cccc3cccc(c23)C(=O)N1CCCN1C(=O)c2cccc3cccc(c23)C1=O`, the survivor count under setting [5] is given as 0 of 3.

On to `Cc1cnc2c(Nc3ccc(Cl)cc3)cc(N)nc2n1`, for which the survivor count is 6 of 6 (dose: 25.0 mg/kg/injection, schedule: Q01DX009 (ip), vehicle: Klucel (hydroxypropylcellulose) (HPC)); 2 of 6 (dose: 100.0 mg/kg/injection, schedule: Q01DX001 (ip), vehicle: other); 0 of 6 under setting [3]; 2 of 6 (dose: 100.0 mg/kg/injection, schedule: Q04DX003 (ip), vehicle: Klucel (hydroxypropylcellulose) (HPC)); 0 of 6 (dose: 200.0 mg/kg/injection, schedule: Q01DX001 (ip), vehicle: other); 1 of 6 (dose: 400.0 mg/kg/injection, schedule: Q01DX001 (ip), vehicle: other).

Consider `N#Cc1cc(-c2ccccc2)c[nH]c1=O`, for which the survivor count runs as follows: under setting [7], 0 of 6; under setting [8], 0 of 6.

Consider `Cc1nc2c(nc1C)C(=O)C(N1CC1)=CC2=O`, for which the survivor count by setting is: under setting [7], 0 of 6; under setting [8], 0 of 6.

Take `[Cl][Pt+2][Cl].[NH-]C1CCCC1.[NH-]C1CCCC1`: the T/C runs as follows: (dose: 80.0 mg/kg/injection, schedule: Q04DX003 (ip), vehicle: Klucel (hydroxypropylcellulose) (HPC)) 141 % of control; (dose: 640.0 mg/kg/injection, schedule: Q04DX003 (ip), vehicle: Klucel (hydroxypropylcellulose) (HPC)) 127 % of control. The survivor count (dose: 320.0 mg/kg/injection, schedule: Q04DX003 (ip), vehicle: Klucel (hydroxypropylcellulose) (HPC)) is 5 of 6.

`COc1ccc(S(=O)(=O)NC(=O)NC23CC4CC(CC(C4)C2)C3)cc1`: the survivor count under setting [9] is 6 of 6.

`CCC[CH2][Sn]1([CH2]CCC)[O]C(=O)c2c(c(-c3ccccc3)c(-c3ccccc3)c(-c3ccccc3)c2-c2ccccc2)C(=O)[O]1`: the survivor count is listed as 0 of 4 (dose: 100.0 mg/kg/injection, schedule: Q01DX001 (ip), vehicle: saline); 0 of 4 (dose: 200.0 mg/kg/injection, schedule: Q01DX001 (ip), vehicle: saline); 0 of 4 (dose: 400.0 mg/kg/injection, schedule: Q01DX001 (ip), vehicle: saline).

As to `CC1NCCC1CO` (stereo unspecified), the survivor count under setting [6] is 0 of 6.

With `CSc1nc(N)nc2c1ncn2C1CC(O)C(CO)O1` (stereo unspecified), where the note is “dose: 400.0 mg/kg/injection, schedule: Q01DX005 (ip), vehicle: saline”, the T/C is 126 % of control.

As for `O=C(CBr)Nc1ccccc1S(=O)(=O)F`, the survivor count (dose: 75.0 mg/kg/injection, schedule: Q04DX003 (ip), vehicle: carboxymethylcellulose (CMC)) was 0 of 6; the survivor count (dose: 150.0 mg/kg/injection, schedule: Q01DX001 (ip), vehicle: carboxymethylcellulose (CMC)) is given as 2 of 6; the survivor count (dose: 300.0 mg/kg/injection, schedule: Q01DX001 (ip), vehicle: carboxymethylcellulose (CMC)) is recorded as 1 of 6.

`CCOC(=O)CNC(=O)N(CCCl)N=O`: the T/C runs as follows: (dose: 200.0 mg/kg/injection, schedule: Q01DX Z (ip), vehicle: carboxymethylcellulose (CMC)) 125 % of control; (dose: 300.0 mg/kg/injection, schedule: Q01DX Z (ip), vehicle: carboxymethylcellulose (CMC)) 125 % of control.

For `CCO/N=C(/C)C(C)SC#N` (stereo unspecified), where the note is “dose: 40.0 mg/kg/injection, schedule: Q01DX001 (ip), vehicle: saline”, the survivor count is listed as 3 of 6.

In the case of `NC(N)=N/N=C(/c1ccccc1)c1ccc(F)cc1`, the T/C (dose: 50.0 mg/kg/injection, schedule: Q01DX009 (ip), vehicle: carboxymethylcellulose (CMC)) is 134 % of control [5 of 6 alive]; the T/C (dose: 80.0 mg/kg/injection, schedule: Q01DX001 (ip), vehicle: other) is 128 % of control; the T/C (dose: 100.0 mg/kg/injection, schedule: Q01DX009 (ip), vehicle: carboxymethylcellulose (CMC)) was 136 % of control. The survivor count is reported as 2 of 6 (dose: 60.0 mg/kg/injection, schedule: Q01DX Z (ip), vehicle: saline); 6 of 6 (dose: 60.0 mg/kg/injection, schedule: Q01DX Z (oral), vehicle: saline); 0 of 6 (dose: 80.0 mg/kg/injection, schedule: Q01DX009 (ip), vehicle: other); 0 of 6 (dose: 120.0 mg/kg/injection, schedule: Q01DX Z (ip), vehicle: saline); 5 of 6 (dose: 120.0 mg/kg/injection, schedule: Q01DX Z (oral), vehicle: saline); 2 of 6 (dose: 160.0 mg/kg/injection, schedule: Q01DX001 (ip), vehicle: other). In addition, the survivor count is, setting by setting: (dose: 160.0 mg/kg/injection, schedule: Q01DX009 (ip), vehicle: carboxymethylcellulose (CMC)) 0 of 6; (dose: 160.0 mg/kg/injection, schedule: Q01DX009 (ip), vehicle: other) 0 of 6; (dose: 200.0 mg/kg/injection, schedule: Q01DX009 (ip), vehicle: carboxymethylcellulose (CMC)) 0 of 6; (dose: 400.0 mg/kg/injection, schedule: Q01DX009 (ip), vehicle: carboxymethylcellulose (CMC)) 0 of 6.

In the case of `Cn1c2c(c(=O)n(C)c1=O)CC(=O)N2`, the survivor count under setting [9] is recorded as 0 of 3.

As to `O=C(O)c1c(F)c(F)c(-c2c(F)c(F)c(F)c(F)c2F)c(F)c1F`, the survivor count (dose: 400.0 mg/kg/injection, schedule: Q01DX001 (ip), vehicle: saline with Tween-80) is listed as 1 of 6.

Take `N=c1cc(-c2ccc(Cl)cc2)ss1`: the survivor count reads like this: (dose: 300.0 mg/kg/injection, schedule: Q01DX009 (ip), vehicle: saline) 2 of 6; under setting [6], 3 of 6.

As for `CCC(C#N)(CCN(CC=C(C)C)CC=C(C)C)c1cccc2ccccc12` (stereo unspecified), the survivor count is 0 of 6 under setting [4] and 0 of 6 (dose: 400.0 mg/kg/injection, schedule: Q04DX003 (ip), vehicle: Klucel (hydroxypropylcellulose) (HPC)).
